Some results were stated once for a whole list of compounds, not compound by compound.
Tested on: C. autoethanogenum DSM10061
Assay: Amino acid consumption and production during heterotrophic growth (HPLC), compared to biomass requirement
Type: cell-based, Clostridium autoethanogenum
Details: for uptake higher than needed for biomass synthesis: 12AA medium; for consumed at higher yields than needed for biomass synthesis: summary of Example 1

Compound	uptake higher than needed for biomass synthesis	consumed at higher yields than needed for production of biomass (14AA 4x and 8AA 2x media) [fold]	consumed at higher yields than needed for production of biomass (20AA medium) [fold]	consumed at higher yields than needed for production of biomass (20AA medium, listed as ARG)	consumed at higher yields than needed for biomass synthesis [fold]	consumed at higher yields than needed for production of biomass (20AA medium, listed as HIS)
N=C(N)NCCC[C@H](N)C(=O)O [arginine]	more than 120 fold	> 10	> 20	more than 20 fold	> 80	–
N[C@@H](Cc1c[nH]cn1)C(=O)O [histidine]	more than 120 fold	> 10	> 20	–	> 80	more than 20 fold
